Drug screen on melanoma cell lines: apoptosis marker

From a melanoma drug combination screen (doi:10.1371/journal.pone.0140310); values rounded.

Drugs:
etoposide, 100 nM: COc1cc([C@@H]2c3cc4c(cc3[C@@H](O[C@@H]3O[C@@H]5CO[C@@H](C)O[C@H]5[C@H](O)[C@H]3O)[C@H]3COC(=O)[C@H]23)OCO4)cc(OC)c1O
darinaparsin, 2000 nM: C[As](C)SC[C@H](NC(=O)CC[C@H](N)C(=O)O)C(=O)NCC(=O)O
PLX4720, 400 nM: CCCS(=O)(=O)Nc1ccc(F)c(C(=O)c2c[nH]c3ncc(Cl)cc23)c1F
pazopanib, 2000 nM: Cc1ccc(Nc2nccc(N(C)c3ccc4c(C)n(C)nc4c3)n2)cc1S(N)(=O)=O
NVP-BEZ235, 20 nM: Cn1c(=O)n(-c2ccc(C(C)(C)C#N)cc2)c2c3cc(-c4cnc5ccccc5c4)ccc3ncc21
dasatinib, 20 nM: Cc1nc(Nc2ncc(C(=O)Nc3c(C)cccc3Cl)s2)cc(N2CCN(CCO)CC2)n1
JZL184, 5000 nM: O=C(Oc1ccc([N+](=O)[O-])cc1)N1CCC(C(O)(c2ccc3c(c2)OCO3)c2ccc3c(c2)OCO3)CC1
everolimus, 100 nM: CO[C@H]1C[C@@H]2CC[C@@H](C)[C@@](O)(O2)C(=O)C(=O)N2CCCC[C@H]2C(=O)O[C@H]([C@H](C)C[C@@H]2CC[C@@H](OCCO)[C@H](OC)C2)CC(=O)[C@H](C)/C=C(\C)[C@@H](O)[C@@H](OC)C(=O)[C@H](C)C[C@H](C)/C=C/C=C/C=C/1C
vatalanib, 10000 nM: Clc1ccc(Nc2nnc(Cc3ccncc3)c3ccccc23)cc1
vismodegib, 5000 nM: CS(=O)(=O)c1ccc(C(=O)Nc2ccc(Cl)c(-c3ccccn3)c2)c(Cl)c1

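The test systems are human melanoma cell lines, treated with a pair of drugs for 72 h and then stained and imaged. Values are the share of nuclei positive for cleaved PARP as a percentage of the same share in the DMSO control: 100 is the control level, higher means more apoptosis. Every drug was used at one fixed concentration, the higher of two screened. These are primary screening values without error estimates. Basal and induced levels differ widely between cell lines.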 This is part of the screen, not chosen by result. A dash means that no value is listed here.

Combination	WM115	WM451Lu	SK-MEL-5	A375	LOX IMVI	UACC-257	COLO 792	UACC-62	A101D	MEL-HO	501mel	A2058
etoposide and everolimus	57.6	196	517	53.8	227	51.0	131	212	96.7	53.3	-	202
darinaparsin and vatalanib	212	215	474	237	43.2	242	112	162	87.0	185	-	205
PLX4720 and darinaparsin	247	189	301	233	83.7	34.8	128	283	82.0	29.2	-	120
pazopanib and everolimus	235	501	143	31.5	37.8	48.1	300	352	35.8	370	-	204
vismodegib and pazopanib	69.6	75.1	52.4	88.3	78.2	85.1	40.0	23.5	64.1	69.7	-	73.4
vismodegib and PLX4720	158	57.8	74.9	308	154	130	24.6	260	79.8	56.8	-	111
vatalanib and NVP-BEZ235	116	220	233	170	117	122	273	369	236	78.9	-	216
dasatinib and JZL184	158	165	117	29.7	164	46.9	287	222	156	59.0	-	273
JZL184 and darinaparsin	66.6	225	261	40.9	55.9	22.9	91.0	278	176	51.2	87.0	145
NVP-BEZ235 and dasatinib	2320	44.1	206	108	328	61.5	199	261	98.1	249	-	358
NVP-BEZ235 and pazopanib	111	97.0	367	250	216	18.6	296	257	53.1	264	-	220
vatalanib and everolimus	65.9	142	317	87.8	54.6	53.6	186	333	108	195	-	169
vismodegib and dasatinib	459	48.3	238	152	591	130	87.4	274	89.9	43.7	-	275
vismodegib and JZL184	203	49.8	72.6	160	212	119	103	192	127	76.7	84.0	145
PLX4720 and JZL184	305	235	264	109	112	124	47.4	386	283	216	167	113
etoposide and JZL184	87.6	256	171	101	170	44.4	68.4	178	151	180	385	85.2
JZL184 and pazopanib	53.9	40.9	112	176	215	21.7	47.5	174	135	288	193	103
vismodegib and etoposide	82.8	79.6	65.1	68.9	415	104	39.8	242	32.2	143	-	109
dasatinib and darinaparsin	1020	133	372	276	569	89.8	135	285	22.4	50.4	-	461
NVP-BEZ235 and vismodegib	87.4	93.8	274	63.0	55.8	33.3	212	174	279	188	-	151
darinaparsin and everolimus	240	85.4	747	48.3	218	39.4	171	572	73.3	48.7	-	210
etoposide and vatalanib	179	51.8	178	83.2	137	221	60.3	248	75.6	82.8	-	219
PLX4720 and vatalanib	134	173	173	289	70.5	101	103	270	105	64.9	-	83.4
JZL184 and NVP-BEZ235	65.3	214	202	146	225	31.9	123	474	176	44.3	202	197
vismodegib and everolimus	42.8	328	99.9	33.0	214	41.5	123	213	256	62.3	-	208
dasatinib and pazopanib	831	125	692	72.5	449	53.6	126	211	106	102	-	448
darinaparsin and NVP-BEZ235	96.0	79.9	317	358	82.1	34.6	145	119	200	99.5	-	189
NVP-BEZ235 and everolimus	556	335	3820	319	44.6	66.9	1090	435	224	223	-	81.7
vismodegib and darinaparsin	92.8	155	50.0	55.0	48.1	41.3	80.9	123	79.0	73.2	-	72.3
etoposide and dasatinib	897	128	202	49.7	324	47.7	282	367	152	209	-	453
pazopanib and PLX4720	220	90.6	121	66.3	172	64.3	56.9	222	86.7	179	-	87.1
PLX4720 and everolimus	294	587	317	290	114	76.1	125	373	112	106	-	79.5
etoposide and PLX4720	187	49.0	80.9	225	98.0	56.4	58.8	324	63.5	102	-	-
NVP-BEZ235 and PLX4720	569	141	297	104	74.1	23.2	127	338	96.5	61.1	-	186
etoposide and darinaparsin	141	110	154	185	45.0	90.1	160	169	67.6	169	-	133
pazopanib and vatalanib	51.8	136	143	61.5	101	176	125	222	94.7	60.7	-	80.9
pazopanib and etoposide	85.7	132	144	174	215	80.1	123	127	38.1	43.4	-	220
JZL184 and vatalanib	209	59.2	64.2	178	55.3	37.0	60.6	77.2	59.0	117	69.5	110

3 of the entries, repeated:

| Combination | WM115 | WM451Lu | SK-MEL-5 | A375 | LOX IMVI | UACC-257 | COLO 792 | UACC-62 | A101D | MEL-HO | 501mel | A2058 |
|---|---|---|---|---|---|---|---|---|---|---|---|---|
| pazopanib and etoposide | 85.7 | 132 | 144 | 174 | 215 | 80.1 | 123 | 127 | 38.1 | 43.4 | - | 220 |
| vismodegib and dasatinib | 459 | 48.3 | 238 | 152 | 591 | 130 | 87.4 | 274 | 89.9 | 43.7 | - | 275 |
| vismodegib and darinaparsin | 92.8 | 155 | 50.0 | 55.0 | 48.1 | 41.3 | 80.9 | 123 | 79.0 | 73.2 | - | 72.3 |